{
  "source": "patent US20100239652A1",
  "about": "“IMMUNOLIPOSOMES FOR TREATMENT OF CANCER” (UNIVERSITATSSPITAL BASEL, priority 2008, published 2010)",
  "system": "MDA-MB-231",
  "test": "Cytotoxicity study, MTT staining",
  "type": "cell-based, human",
  "conditions": "parental wild-type, lacking mdr; 2 h treatment, MTT after 3 days",
  "description": "Specific cytotoxicity of EGFR-targeted immunoliposomes containing doxorubicin was evaluated in target cells plated at a density of 8,000 cells per well in 96-well plates and allowed to grow overnight. Immunoliposomes or control treatments were applied for 2 h at 37° C., followed by washing with PBS and re-adding growth media. Cells were further incubated at 37 DC for 3 days and analyzed for cell viability using 3-(4,5-dimethylthiazol-2-yl)-2,5-diphenyl tetrazolium bromide (MTT) staining (41). For the cytotoxicity studies using the efflux pump inhibitor verapamil, this compound was added to the media at a concentration of 100 μM during the complete experiment.",
  "data": [
    {"smiles": "COc1cccc2c1C(=O)c1c(O)c3c(c(O)c1C2=O)C[C@@](O)(C(=O)CO)C[C@@H]3O[C@H]1C[C@H](N)[C@H](O)[C@H](C)O1", "note": "[free dox, doxorubicin]", "values": [
      {"measurement": "IC50", "value": 0.6, "unit": "µg/mL"}
    ]}
  ]
}
